Data from US20130202649A1, “ACTIVATION OF INNATE IMMUNITY FOR NUCLEAR REPROGRAMMING OF SOMATIC CELLS” (The Board of Trustees of the Leland Stanford Junior …, priority 2012, published 2013).
Some of these results come from one statement about several compounds together.

System: MEFs expressing a dox-inducible polycistronic transgene construct encoding the four reprogramming factors
Experiment: Doxycycline-inducible iPSC generation from secondary MEFs
Format: cell-based, mouse
Settings: day 14, Dox-treated MEFs
Experimental: To further test the hypothesis that TLR3 activation was required for efficient reprogramming, we isolated MEFs from murine embryos expressing a doxycycline (Dox)-inducible polycistronic transgene construct encoding the four reprogramming factors. To generate iPSCs, 10^5 MEFs/per well in 6-well plates were treated with Dox. In some wells, poly I:C was also added for the initial 6 days of the reprogramming process. In other wells, cells were infected with pMX-GFP on the first day of Dox treatment. Poly I:C or pMX-GFP each accelerated the expression of Oct4 and Sox2 (FIG. 6A). […] Similarly, infection with pMX-GFP seemed to accelerate colony formation, as a number of small colonies were observed by day 7 in the viral particle infected group (FIG. 16). By day 14, typical mES-like colonies appeared, many of which had activated SSEA-1. At this time point, the number of typical SSEA-1^+ colonies were increased by 7-8 fold in wells exposed to viral particles or poly I:C (FIG. 6B). Colony number increased further by day 21-28 (FIGS. 6B and 6C). […]
Doxycycline-induced iPSCs: As previously described (Wernig et al., 2008), MEFs from chimeric embryos at E13.5 were isolated. […] The generation of iPSC colonies was monitored daily and scored at days 14 and 21. […]

“Polyinosinicpolycytidylic acid [Poly I:C]” was tested, and the “increase in number of typical SSEA-1+ colonies” value was 7-8 fold.
